# Laboratory results taken from publication PMC11245600, “Therapeutic potential of the secreted Kazal-type serine protease inhibitor SPINK4 in colitis” (Nature Communications, 2024).
# These are yes or no findings as the source states them, for the method shown. For some assays here: Binding seen in cells or lysates may run through a third protein. Some entries that bind do so weakly or less than the wild type. For some assays here: Where a sequence is shown, tags or fusion partners need not be part of it.
# T1: SPINK4, whole sequence, in vitro translated (wt) (UniProt O60575)
# T1 sequence: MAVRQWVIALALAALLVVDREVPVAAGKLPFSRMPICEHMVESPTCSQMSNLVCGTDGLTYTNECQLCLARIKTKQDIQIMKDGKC
# How the values were obtained:
# [1] = target: T1, SPINK4, whole sequence, in vitro translated (wt); assay: pull-down; in vitro translated 3xFLAG SPINK4 (wt, mut1, mut2) incubated with recombinant extracellular EGFR; anti-FLAG magnetic beads; only the binder purified
# [2] = target: EGFR (epidermal growth factor receptor), endogenous, in membrane protein extract of intestinal epithelial cells (human (endogenous in NCM460 or Caco-2)) (UniProt P00533); assay: co-IP; concentrated medium of SPINK4-FLAG-overexpressing NCM460 or Caco-2 cells incubated with membrane protein extract at 4 °C overnight; anti-EGFR magnetic beads, IgG as control; washed in TBS-T
# [3] = target: rEGFR-His (extracellular domain) (UniProt P00533); assay: ITC; rSPINK4-His (30 μM in 100 μL) titrated into rEGFR-His extracellular domain (6 μM in 300 μL); MicroCal PEAQ-ITC; control titration into PBS; both purified
# [4] = target: EGFR (epidermal growth factor receptor), endogenous, in membrane protein extract of intestinal epithelial cells (human (endogenous in NCM460 or Caco-2)) (UniProt P00533); assay: co-IP; human-derived rSPINK4 incubated in vitro with membrane protein extract; precipitated with anti-EGFR antibody beads; only the binder purified
# [5] = target: whole extracellular EGFR, in vitro translated (ED) (UniProt P00533); assay: pull-down; in vitro translated 3xFLAG EGFR extracellular domain or its deletions incubated with recombinant rSPINK4; anti-FLAG magnetic beads; only the binder purified
molecule,measurement,setting,value
Fc-tagged extracellular section of EGFR (rEGFR) (from UniProt P00533 25-645) (Fc fusion),binding,[1],binds
"SPINK4-FLAG from the concentrated medium of SPINK4-FLAG-overexpressing cells (protein, UniProt O60575 27-86) GKLPFSRMPICEHMVESPTCSQMSNLVCGTDGLTYTNECQLCLARIKTKQDIQIMKDGKC",binding,[2],binds
"human-derived recombinant SPINK4 protein, His-tagged (rSPINK4-His) (natural protein, UniProt O60575 27-86, looked up, Bought recombinant protein) GKLPFSRMPICEHMVESPTCSQMSNLVCGTDGLTYTNECQLCLARIKTKQDIQIMKDGKC",binding,[3],binds weakly
same,binding,[4],binds
same,binding,[5],binds
